From article PMC8401265, “Evolutionary Diversification of Host-Targeted Bartonella Effectors Proteins Derived from a Conserved FicTA Toxin-Antitoxin Module” (Microorganisms, 2021)
No constants are given. Whether binding was seen depends on the method and setting. In cells and extracts the contact can be indirect. A result given as binding can be weak or reduced; the word gives no strength.

Target: T1, Bartonella henselae BepA, FIC and OB domains (amino acid residues 1-296) (B. henselae) (UniProt Q6G2A9)
T1 sequence: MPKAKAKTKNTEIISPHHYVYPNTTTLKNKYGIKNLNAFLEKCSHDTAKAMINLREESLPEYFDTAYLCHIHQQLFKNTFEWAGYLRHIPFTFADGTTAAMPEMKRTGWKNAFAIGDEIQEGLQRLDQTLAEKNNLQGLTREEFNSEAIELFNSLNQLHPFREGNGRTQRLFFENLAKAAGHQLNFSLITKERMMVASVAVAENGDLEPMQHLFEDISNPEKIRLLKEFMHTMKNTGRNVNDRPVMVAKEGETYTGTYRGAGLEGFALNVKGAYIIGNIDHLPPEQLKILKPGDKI
Assay: crystal structure; co-expressed and co-purified complex, 20 mg/mL in 20 mM HEPES, 150 mM NaCl, 2 mM MgCl2, 1 mM TCEP; hanging-drop vapor diffusion at 22 °C; reservoir 0.2 M di-sodium malonate, 20% w/v PEG 3350; both purified

Bartonella henselae BiaA antitoxin (FicA homolog), full length (B. henselae)
binding: binds
